# In article PMC9427754:
# Results are given in words; binding and its absence hold for the method and conditions named. In cells and extracts the contact can be indirect. A result given as binding can be weak or reduced; the word gives no strength. Where a sequence is shown, tags or fusion partners need not be part of it.
# Target: T1, zebrafish p53-FLAG (zebrafish) (UniProt P79734)
# T1 sequence: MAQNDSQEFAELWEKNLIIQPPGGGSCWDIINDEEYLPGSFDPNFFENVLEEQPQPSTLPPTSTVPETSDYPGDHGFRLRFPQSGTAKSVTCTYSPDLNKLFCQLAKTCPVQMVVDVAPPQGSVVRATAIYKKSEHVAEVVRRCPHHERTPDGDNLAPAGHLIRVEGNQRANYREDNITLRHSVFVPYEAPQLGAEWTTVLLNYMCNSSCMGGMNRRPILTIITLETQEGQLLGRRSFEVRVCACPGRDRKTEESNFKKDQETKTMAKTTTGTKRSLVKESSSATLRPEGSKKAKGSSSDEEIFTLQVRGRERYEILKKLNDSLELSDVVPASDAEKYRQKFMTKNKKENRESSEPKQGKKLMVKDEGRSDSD
# Assay: co-IP; cells transfected with the indicated plasmids, infected with E. piscicida at MOI 1, collected at 6 hpi, lysed in IP lysis buffer; FLAG-tagged Protein Immunoprecipitation Kit; blots with anti-FLAG and anti-pTurboGFP
row,binding,Substance
1,binds,zebrafish CD44a_tv1-GFP
2,binds,zebrafish CD44a_tv2-GFP
